Source: publication PMC12040169 (PLOS Biology, 2025)
The list shows a part of the results.

Test system: T1, CTL2-GFP (C. trachomatis L2/434/Bu, GFP-expressing)
T1 construct: L2/434/Bu, GFP-expressing
Set-up: species or system HeLa; Intracellular C. trachomatis growth in HeLa cells, bulk GFP fluorescence relative to DMSO
Conditions: bulk GFP, single well; 28.5 h, 10 µM; inhibitor

Structure (SMILES) | % of control remaining
COc1cc(C(c2c(C)n(C)n(-c3ccccc3)c2=O)c2c(C)n(C)n(-c3ccccc3)c2=O)ccc1O [CBK261690] | 87.0465%
CCOc1ccccc1Nc1nc(N)nc(CN2CCCCC2C)n1 (stereo not drawn) [CBK266548] | 155.337%
Cc1ncsc1CCC(=O)NCC1CCN(c2ccccc2F)C1 (stereo not drawn) [CBK304675] | 67.2735%
Cc1cc(C)n(CCCNC(=O)Cc2csc(N3CCCC3=O)n2)n1 [CBK305708] | 101.398%
N#Cc1cccc(S(=O)(=O)Nc2ccc(-c3nnn[nH]3)cc2)c1 [CBK155427] | 121.079%
CC(C)(C)c1ccc(-c2nc(Nc3cccc(C(=O)O)c3)c3ccccc3n2)cc1 [CBK265229C] | 92.95%
O=C(O)C1CCCCC1C(=O)N1CCN(Cc2cccc(Cl)c2)CC1 (stereo not drawn) [CBK270330] | 127.922%
COC(=O)Nc1ccc(S(=O)(=O)N2CCCC(C(=O)Nc3cccc(C(F)(F)F)c3)C2)cc1 (stereo not drawn) [CBK265248] | 71.5547%
CN1CCC(N(C)Cc2ccc3c(c2)OCO3)CC1 [CBK261564] | 118.777%
COc1cccc(Nc2cc(-c3ccco3)ncn2)c1OC [CBK090727] | 155.601%
COc1cc(/C=C/c2[nH]c(=O)[nH]c(=O)c2[N+](=O)[O-])cc(Br)c1OCC(=O)O [CBK267977] | 106.574%
Cc1ccsc1C(=O)N1CCC(c2n[nH]c3ncccc23)CC1 [CBK284910] | 124.313%
Cn1c(C2CC2)nc2c1CCN(Cc1cn3cc(Cl)ccc3n1)C2 [CBK305314] | 123.104%
NC(=O)C1(N2CCCCC2)CCN(CC(=O)Nc2ccc(Oc3ccccc3)cc2)CC1 [CBK265774] | 118.045%
CCCOc1ccc(S(=O)(=O)NCc2ccc3c(c2)OCO3)c2ccccc12 [CBK269059] | 104.439%
COc1ccc(OC)c(NC(=O)CNC(=O)c2ccccc2F)c1 [CBK267846] | 132.732%
CCC1C=CCN1S(=O)(=O)c1cccc(C(=O)NCc2cnn(C)c2)c1 (stereo not drawn) [CBK307536] | 128.836%
O=C(NCCn1c(=O)oc2ccccc21)C(c1cccs1)c1cccs1 [CBK286198] | 128.893%
COc1cc(NC(=O)N2CCN(CCc3ccccc3)CC2)cc(OC)c1OC [CBK158933] | 198.05%
O=C(O)C1CC(C(=O)O)C(C(=O)O)CC1C(=O)O (stereo not drawn) [CBK261332] | 100%
COc1cccc2c1cc(C(=O)NCCn1ccnc1C)n2C [CBK283267] | 104.326%
CSc1nccc(N2CCC(NCCn3c(C)cc(C)nc3=O)CC2)n1 [CBK307070] | 98.4704%
CC(=O)Nc1cccc(-n2nnnc2SCCCc2nc3ccccc3o2)c1 [CBK298317] | 128.021%
O=C1CN(C(=O)NCc2cccc3ccccc23)CCN1 [CBK155852] | 111.501%
C=CCn1c2ccccc2c2nnc(SCC(=O)OCN3C(=O)c4ccccc4C3=O)nc21 [CBK263231] | 105.901%
COc1ccc(C(=O)C2=C(O)C(=O)N(CCCN(C)C)C2c2ccc(Cl)c(Cl)c2)c(C)c1 (stereo not drawn) [CBK264896] | 100%

Structure (SMILES) | % of control remaining
Cc1ccc(OCCOc2cccc(/C=N/n3cnnc3)c2)cc1 [CBK263028] | 95.7929%
O=C(NC1CCCCC1)[C@@H]1C=CCN1C(=O)c1cccs1 [CBK284338] | 78.2001%
O=C1CC(N2CCN(c3ccccc3)CC2)C(=O)N1c1cccc2ccccc12 (stereo not drawn) [CBK261263] | 100%
CS(=O)(=O)c1ccc(CNc2nccnc2-c2ccccc2F)cc1 [CBK036836] | 189.714%
CN(C)S(=O)(=O)N(CC(=O)Nc1cccc([N+](=O)[O-])c1)c1ccccc1 [CBK265904] | 130.718%
COC(=O)c1cn(C(=O)COc2ccc(Cl)cc2)c2ccccc12 [CBK262598] | 100%
Cc1cnc2c(Cl)c(C(=O)N3CCN(C)C4(CCNCC4)C3)nn2c1 [CBK306513] | 159.782%
CCOC(=O)C1CSCCN1C(=O)c1cc(C)n(-c2nccs2)c1C (stereo not drawn) [CBK305884] | 115.842%
O/N=C1\CC(c2ccccc2)Oc2ccc(Cl)cc21 (stereo not drawn) [CBK288370] | 82.5829%
CC(C)Nc1nccnc1OCc1ccc(F)cc1 [CBK115644] | 171.527%
O=C(C1CCCC1)N1CCC(n2c(=O)oc3ccc(Cl)cc32)CC1 [CBK284344] | 87.9341%
CC(=O)CCCCC(=O)N1CCC2(CC1)CC(=O)c1cc(C)c(C)cc1O2 [CBK156497] | 130.027%
O=S(=O)(Nc1nnn[nH]1)c1csc2ccccc12 [CBK062590] | 150.089%
Cc1ccc(S(=O)(=O)Nc2ccc(Nc3cc(-c4cc5ccccc5o4)ncn3)cc2)cc1 [CBK090976] | 161.265%
CN1CC[C@H](c2nc3ncccc3[nH]2)C1 [CBK289384] | 103.148%
O=C(c1cc2cc(Cl)ccc2[nH]1)N1CCN(c2ccccn2)CC1 [CBK107343] | 91.8673%
Cc1ccc(NC(=S)N(CCN(C)C)Cc2cc3ccc(C)cc3[nH]c2=O)c(C)c1 [CBK135134] | 123.601%
NS(=O)(=O)c1ccc(NC(=O)c2ccc3ccccc3c2)cc1 [CBK264338] | 95.0913%
Cc1cc(C)c2c(c1)cc(C)c1nn(CC(=O)N(C)C)c(=O)n12 [CBK283927] | 106.939%
O=C(NCCCNC(=O)c1ccc(Br)o1)c1ccccn1 [CBK269430] | 118.061%
COc1ccc(-c2noc(CN(C(C)=O)C3CCCCC3)n2)cc1 [CBK270264] | 84.992%
O=C(CCc1ccccc1)N1CCCC1c1n[nH]cc1-c1ccncc1 (stereo not drawn) [CBK283436] | 158.607%
COc1ccccc1-c1nccnc1OC [CBK106811] | 92.9283%
Nc1ccc(-c2nc(NC(=O)Cc3ccccc3)cnc2-c2ccc(F)c(Cl)c2)cc1 [CBK036690] | 101.084%
CN1CCN(C(=O)CNS(=O)(=O)c2cc(F)c(Br)cc2F)CC1 [CBK034481] | 102.568%
CC1(C)[C@H](Cc2cc(CO)on2)C[C@@H]1NS(=O)(=O)c1ccccc1 [CBK289234] | 112.982%

Structure (SMILES) | % of control remaining
COc1ccccc1NC(=O)Cn1cc(C(=O)c2cccs2)c2ccccc21 [CBK268256] | 109.228%
COC(=O)C1CCCCN1S(=O)(=O)c1cccc2cccnc12 (stereo not drawn) [CBK051244] | 121.557%
Cc1ccccc1OCC(=O)NCC1(N2CCCCC2)CCCCC1 [CBK297752] | 138.192%
Cc1cc(C)c(C)c(OCC(=O)N(Cc2nc(-c3ccccc3)no2)C2CCCCC2)c1 [CBK268974] | 97.7924%
O=C(CN1C(=O)c2ccccc2C1=O)Nn1cnnc1 [CBK263789] | 100%
CO[C@@]12CC[C@@H](OCC(=O)O)C[C@@H]1N(Cc1ccccc1C)CC2 [CBK307548] | 67.1181%
CCCC1CCN(Cc2ccn(Cc3ccc(S(C)(=O)=O)cc3)c2)CC1 [CBK144937] | 141.729%
NS(=O)(=O)c1ccc(/N=C/c2cccc(OCc3ccccc3)c2)cc1 [CBK261594] | 73.7748%
CC(=O)Nc1ccc(C(=O)N2CCNC(=O)C2Cc2ccccc2-c2cccc(C)c2)cc1 (stereo not drawn) [CBK285837] | 113.505%
CCOc1cc(OCC)cc(C(=O)N2CCC3(CC2)CC(=O)c2ccc(OCC)c(C)c2O3)c1 [CBK168015] | 87.0683%
N#C/C(=C/c1ccc(-c2ccc(S(N)(=O)=O)cc2)o1)S(=O)(=O)c1ccc(Cl)cc1 [CBK266383] | 146.388%
Cc1ccc(S(=O)(=O)N2c3ccc(C(=O)O)cc3CC2C)cc1 (stereo not drawn) [CBK286584] | 122.526%
CCOc1ccccc1OCC(=O)NN [CBK261782] | 106.559%
N=C(N)NCC(=O)N(CCc1cc(C(F)(F)F)cc(C(F)(F)F)c1)c1cccc2ccccc12 [CBK001122T] | 109.967%
CN1CCN(C(=O)CCn2c(C(F)(F)F)cc3cccnc32)CC1 [CBK284896] | 132.31%
Cc1cc2c(s1)c1cnn(CC(=O)N3CCCC3)c(=O)c1n2C [CBK284153] | 119.355%
OCCC1CNCCN1Cc1ccc(F)c(F)c1 (stereo not drawn) [CBK269824] | 106.71%
O=C(NCc1ccncc1)OCCc1ccncc1 [CBK200133] | 116.299%
COCCN(C(=O)CSc1ccc2ccccc2n1)C1CCS(=O)(=O)C1 (stereo not drawn) [CBK304988] | 100.647%
Cn1c2ccccc2c2nnc(SCCCC(=O)c3ccc4c(c3)OCCO4)nc21 [CBK268750] | 179.579%
Fc1cc(Br)c(CNCc2ccno2)c(N2CCCCC2)c1F [CBK304723] | 125.779%
Cc1ccc(SCC(=O)Nc2cc(C)on2)cc1 [CBK057070] | 96.813%
Cc1nc(-c2ccccc2)sc1C(=O)C1=C(O)C(=O)N(CCN2CCOCC2)C1c1ccccc1F (stereo not drawn) [CBK266511] | 180.553%
Cn1ccnc1C1(O)CC2CCC(C1)N2C(=O)c1ccccc1F (stereo not drawn) [CBK284085] | 128.103%
CCOC(=O)N1CCC(NS(=O)(=O)c2cc(C(=O)OC)n(C)c2)CC1 [CBK304688] | 135.969%
OC1(Cn2cnc3ccccc32)CCN(CCc2ccccc2)CC1 [CBK284789] | 146.516%

Looked up by compound from the entries so far, three records:
Structure (SMILES) | % of control remaining
COc1cccc2c1cc(C(=O)NCCn1ccnc1C)n2C [CBK283267] | 104.326%
COc1ccccc1-c1nccnc1OC [CBK106811] | 92.9283%
O=C(NCc1ccncc1)OCCc1ccncc1 [CBK200133] | 116.299%
